Results deposited as PubChem BioAssay AID1259405 (NCATS, 2018).
In all, the deposit lists about 50,000 reagents; shown is an unselected part. Over the whole deposit, about 4,000 (8%) were called active. 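Mouse siRNA library applied to hamster cells; one well for each siRNA.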 Reagents against one gene are numbered here.

- Test: 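Knock-downs that lift recombinant protein yield in hamster ovary cells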 (primary screen)
- Cells: Chinese hamster CHO-K1 ovary cells with stable secreted eGFP expression
- Knock-down reagent: single siRNA against mouse genes, 0.8 pmol siRNA per well (2 µl of 400 nM stock)
- Timing: 3 days
- Measured: 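Percent of the per-plate non-targeting control median for intracellular GFP per well by laser scanning cytometry and for cell viability by ATP luminescence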
- Reading the numbers: GFP, % of control: higher = more GFP per well, higher productivity; viability (ATP), % of control: higher = more viable cells (more ATP)
- Active means: 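a knock-down is called active if GFP reaches 120% or more of non-targeting control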

| target gene | reagent no. | GFP, % of control | viability (ATP), % of control | call |
| --- | --- | --- | --- | --- |
| Bmp4 (GeneID 12159) | 1 | 63.3 | 57.4 | inactive |
| Bmp4 (GeneID 12159) | 2 | 59.5 | 67.8 | inactive |
| Bmp4 (GeneID 12159) | 3 | 63.3 | 65 | inactive |
| Hprt1 (GeneID 15452) | 1 | 38.7 | 87.6 | inactive |
| Hprt1 (GeneID 15452) | 2 | 96 | 101 | inactive |
| Hprt1 (GeneID 15452) | 3 | 84.6 | 89 | inactive |
| Trim32 (GeneID 69807) | 1 | 44.5 | 51 | inactive |
| Trim32 (GeneID 69807) | 2 | 79.1 | 77.8 | inactive |
| Trim32 (GeneID 69807) | 3 | 66.9 | 106 | inactive |
| 2200002J24Rik (GeneID 69147) | 1 | 55 | 33.4 | inactive |
| 2200002J24Rik (GeneID 69147) | 2 | 44.8 | 83.2 | inactive |
| 2200002J24Rik (GeneID 69147) | 3 | 71.2 | 98.7 | inactive |
| Nwd1 (GeneID 319555) | 1 | 96.5 | 88.4 | inactive |
| Nwd1 (GeneID 319555) | 2 | 54.7 | 42.6 | inactive |
| Nwd1 (GeneID 319555) | 3 | 37.4 | 53.4 | inactive |
| Klrb1b (GeneID 80782) | 1 | 90.6 | 74.5 | inactive |
| Klrb1b (GeneID 80782) | 2 | 116 | 95.7 | inactive |
| Klrb1b (GeneID 80782) | 3 | 75.5 | 77.5 | inactive |
| Klrb1b (GeneID 80782) | 4 | 86.6 | 82.7 | inactive |
| Klrb1b (GeneID 80782) | 5 | 80.2 | 82.9 | inactive |
| Klrb1b (GeneID 80782) | 6 | 87.4 | 70.4 | inactive |
| Alk (GeneID 11682) | 1 | 67.6 | 76.1 | inactive |
| Zfp445 (GeneID 235682) | 1 | 36.3 | 66.1 | inactive |
| Zfp445 (GeneID 235682) | 2 | 60.7 | 48.9 | inactive |
| Smtnl2 (GeneID 276829) | 1 | 60.1 | 61.8 | inactive |
| Smtnl2 (GeneID 276829) | 2 | 66.4 | 34.8 | inactive |
| Smtnl2 (GeneID 276829) | 3 | 79.6 | 97.1 | inactive |
| Ror1 (GeneID 26563) | 1 | 45.6 | 46.4 | inactive |
| Ppm1d (GeneID 53892) | 1 | 91.4 | 72.4 | inactive |
| Ppm1d (GeneID 53892) | 2 | 62.2 | 70.1 | inactive |
| Ppm1d (GeneID 53892) | 3 | 101 | 95 | inactive |
| Bpi (GeneID 329547) | 1 | 98 | 124 | inactive |
| Bpi (GeneID 329547) | 2 | 69.4 | 90.5 | inactive |
| Bpi (GeneID 329547) | 3 | 38.7 | 52.2 | inactive |
| Fmnl1 (GeneID 57778) | 1 | 84.9 | 84.6 | inactive |
| Fmnl1 (GeneID 57778) | 2 | 69.4 | 78.4 | inactive |
| Wnt7a (GeneID 22421) | 1 | 80.6 | 68.9 | inactive |
| Wnt7a (GeneID 22421) | 2 | 54.5 | 49.5 | inactive |
| Wnt7a (GeneID 22421) | 3 | 59.1 | 63.6 | inactive |
| Cytip (GeneID 227929) | 1 | 81.7 | 87.5 | inactive |
| Cytip (GeneID 227929) | 2 | 55.9 | 81.4 | inactive |
| Cytip (GeneID 227929) | 3 | 62.8 | 77 | inactive |
| Cwh43 (GeneID 231293) | 1 | 41.1 | 39.8 | inactive |
| Cwh43 (GeneID 231293) | 2 | 57.2 | 69.5 | inactive |
| Cwh43 (GeneID 231293) | 3 | 137 | 104 | active |
| LOC547349 (GeneID 547349) | 1 | 68 | 101 | inactive |
| LOC547349 (GeneID 547349) | 2 | 67.4 | 74.4 | inactive |
| LOC547349 (GeneID 547349) | 3 | 49.2 | 32.8 | inactive |
| Sec22c (GeneID 215474) | 1 | 45.6 | 48.7 | inactive |
| Sec22c (GeneID 215474) | 2 | 14.6 | 17.3 | inactive |
| Sec22c (GeneID 215474) | 3 | 78.2 | 72.1 | inactive |
| Ago4 (GeneID 76850) | 1 | 70.9 | 78.5 | inactive |
| Ago4 (GeneID 76850) | 2 | 89.3 | 76.2 | inactive |
| Ago4 (GeneID 76850) | 3 | 110 | 81.8 | inactive |
| D930030D11Rik (GeneID 320874) | 1 | 67.4 | 71.2 | inactive |
| D930030D11Rik (GeneID 320874) | 2 | 13.4 | 28.5 | inactive |
| D930030D11Rik (GeneID 320874) | 3 | 132 | 60.3 | active |
| Ap2m1 (GeneID 11773) | 1 | 72.2 | 51.1 | inactive |
| Ap2m1 (GeneID 11773) | 2 | 106 | 108 | inactive |
| Ap2m1 (GeneID 11773) | 3 | 44.2 | 31.3 | inactive |
| Dync2i1 (GeneID 217935) | 1 | 81.7 | 68.3 | inactive |
| Dync2i1 (GeneID 217935) | 2 | 140 | 82 | active |
| Dync2i1 (GeneID 217935) | 3 | 104 | 76.5 | inactive |
| Ush2a (GeneID 22283) | 1 | 88.7 | 80.1 | inactive |
| Ush2a (GeneID 22283) | 2 | 79.9 | 88.1 | inactive |
| Ush2a (GeneID 22283) | 3 | 83.1 | 73.2 | inactive |
| Omg (GeneID 18377) | 1 | 123 | 104 | active |
| Omg (GeneID 18377) | 2 | 93.8 | 89.4 | inactive |
| Omg (GeneID 18377) | 3 | 96.3 | 83.8 | inactive |
| Atat1 (GeneID 73242) | 1 | 73.8 | 56.8 | inactive |
| Atat1 (GeneID 73242) | 2 | 73.3 | 38.6 | inactive |
| Atat1 (GeneID 73242) | 3 | 89.4 | 81 | inactive |

9 of these entries, set out differently:
{"target gene": "Bmp4 (GeneID 12159)", "reagent no.": 1, "GFP, % of control": 63.3, "viability (ATP), % of control": 57.4, "call": "inactive"}
{"target gene": "Bmp4 (GeneID 12159)", "reagent no.": 2, "GFP, % of control": 59.5, "viability (ATP), % of control": 67.8, "call": "inactive"}
{"target gene": "Bmp4 (GeneID 12159)", "reagent no.": 3, "GFP, % of control": 63.3, "viability (ATP), % of control": 65, "call": "inactive"}
{"target gene": "Hprt1 (GeneID 15452)", "reagent no.": 1, "GFP, % of control": 38.7, "viability (ATP), % of control": 87.6, "call": "inactive"}
{"target gene": "Hprt1 (GeneID 15452)", "reagent no.": 2, "GFP, % of control": 96, "viability (ATP), % of control": 101, "call": "inactive"}
{"target gene": "Hprt1 (GeneID 15452)", "reagent no.": 3, "GFP, % of control": 84.6, "viability (ATP), % of control": 89, "call": "inactive"}
{"target gene": "Trim32 (GeneID 69807)", "reagent no.": 1, "GFP, % of control": 44.5, "viability (ATP), % of control": 51, "call": "inactive"}
{"target gene": "Trim32 (GeneID 69807)", "reagent no.": 2, "GFP, % of control": 79.1, "viability (ATP), % of control": 77.8, "call": "inactive"}
{"target gene": "Trim32 (GeneID 69807)", "reagent no.": 3, "GFP, % of control": 66.9, "viability (ATP), % of control": 106, "call": "inactive"}

The results go on.
| target gene | reagent no. | GFP, % of control | viability (ATP), % of control | call |
| --- | --- | --- | --- | --- |
| Tafa5 (GeneID 106014) | 1 | 54.7 | 66 | inactive |
| Tafa5 (GeneID 106014) | 2 | 37.9 | 67.2 | inactive |
| Tafa5 (GeneID 106014) | 3 | 77.6 | 70.3 | inactive |
| St8sia4 (GeneID 20452) | 1 | 50 | 45.1 | inactive |
| St8sia4 (GeneID 20452) | 2 | 112 | 125 | inactive |
| St8sia4 (GeneID 20452) | 3 | 109 | 80.6 | inactive |
| Popdc2 (GeneID 64082) | 1 | 104 | 56.7 | inactive |
| Popdc2 (GeneID 64082) | 2 | 92.3 | 81.4 | inactive |
| Popdc2 (GeneID 64082) | 3 | 121 | 102 | active |
| Cdk20 (GeneID 105278) | 1 | 35.4 | 49.1 | inactive |
| Cdk20 (GeneID 105278) | 2 | 116 | 59.8 | inactive |
| Cdk20 (GeneID 105278) | 3 | 57.9 | 67.5 | inactive |
| Tas1r3 (GeneID 83771) | 1 | 85.1 | 78.7 | inactive |
| Tas1r3 (GeneID 83771) | 2 | 67.6 | 71.7 | inactive |
| Tas1r3 (GeneID 83771) | 3 | 59.4 | 117 | inactive |
| C1ql3 (GeneID 227580) | 1 | 54.1 | 72.6 | inactive |
| C1ql3 (GeneID 227580) | 2 | 59.5 | 89.6 | inactive |
| C1ql3 (GeneID 227580) | 3 | 22.5 | 45.8 | inactive |
| Pnpla8 (GeneID 67452) | 1 | 73.3 | 92.8 | inactive |
| Pnpla8 (GeneID 67452) | 2 | 120 | 89.3 | active |
| Pnpla8 (GeneID 67452) | 3 | 146 | 88.6 | active |
| Rfwd3 (GeneID 234736) | 1 | 66.7 | 76.6 | inactive |
| Rfwd3 (GeneID 234736) | 2 | 68 | 91 | inactive |
| Rfwd3 (GeneID 234736) | 3 | 93.1 | 97.1 | inactive |
| Hoxa4 (GeneID 15401) | 1 | 108 | 87.4 | inactive |
| Hoxa4 (GeneID 15401) | 2 | 69.3 | 76.5 | inactive |
| Antkmt (GeneID 214917) | 1 | 72.9 | 63.7 | inactive |
| Antkmt (GeneID 214917) | 2 | 58.9 | 60.8 | inactive |
| Antkmt (GeneID 214917) | 3 | 104 | 98.6 | inactive |
| Or10ak13 (GeneID 258306) | 1 | 75.4 | 79.1 | inactive |
| Or10ak13 (GeneID 258306) | 2 | 53.9 | 75.6 | inactive |
| Or10ak13 (GeneID 258306) | 3 | 58.9 | 37.2 | inactive |
| Efnb1 (GeneID 13641) | 1 | 97.6 | 81.3 | inactive |
| Efnb1 (GeneID 13641) | 2 | 87.5 | 63.5 | inactive |
| Agpat3 (GeneID 28169) | 1 | 89.9 | 90.8 | inactive |
| Agpat3 (GeneID 28169) | 2 | 74 | 61.2 | inactive |
| Agpat3 (GeneID 28169) | 3 | 71.3 | 71.6 | inactive |
